PubChem BioAssay AID1259424 | University of Nebraska Medical Center | 2018
Purpose: 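Rank knockdowns across the genome by resemblance to the KSR1 depletion profile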 (primary screen). Cell system: human HCT116 colon cancer cells. Knock-down reagent: siRNA pool against human genes, 50 nM. Measurement: 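Six signature mRNAs by branched-DNA multiplex assay, scaled to two housekeeping genes and non-targeting median, log2; matched to mean KSR1 knockdown profile by Pearson correlation and euclidean distance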. Reading the numbers: mean correlation with KSR1 profile and KSR1 correlation: higher = expression change more like KSR1 knockdown; mean distance from KSR1 profile: higher = expression change less like KSR1 knockdown.
The whole screen tested about 14,000 reagents; below is an unselected part. 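Higher correlation or smaller distance means closer resemblance to KSR1 loss; control wells, including KSR1 knockdowns, recur on many plates.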 Not given: the time to read-out.

Target gene | PubChem SID | mean correlation with KSR1 profile | mean distance from KSR1 profile | KSR1 correlation, replicate 1 | KSR1 correlation, replicate 2 | KSR1 correlation, replicate 3
PLA2G7 (phospholipase A2 group VII) | SID363996020 | 0.268 | 1.25 | -0.176 | 0.499 | 0.283
SRSF5 (serine and arginine rich splicing factor 5) | SID363997678 | -0.163 | 1.33 | -0.228 | 0.0813 | -0.157
SLC10A7 | SID364003785 | 0.76 | 1.63 | 0.638 | 0.661 | 0.8
RFX4 (regulatory factor X4) | SID363994074 | 0.43 | 1.14 | 0.412 | 0.087 | 0.133
POLR1E (RNA polymerase I subunit E) | SID364002475 | -0.568 | 1.3 | -0.762 | -0.62 | -0.656
COX7A2L (cytochrome c oxidase subunit 7A2 like) | SID363995677 | -0.268 | 1.89 | -0.232 | -0.245 | -0.219
KLHL8 (kelch like family member 8) | SID364001838 | 0.498 | 6.03 | 0.372 | 0.236 | 0.711
THAP4 (THAP domain containing 4) | SID363999756 | -0.377 | 1.94 | -0.474 | -0.402 | -0.143
CLEC4D (C-type lectin domain family 4 member D) | SID364004482 | 0.317 | 1.3 | 0.559 | -0.0877 | 0.356
PSMD5 (proteasome 26S subunit, non-ATPase 5) | SID363995985 | -0.226 | 2.44 | -0.324 | -0.145 | -0.233
DYNC1H1 (dynein cytoplasmic 1 heavy chain 1) | SID363992648 | -0.967 | 2.49 | -0.934 | -0.964 | -0.98
TMBIM1 (transmembrane BAX inhibitor motif containing 1) | SID364002378 | 0.21 | 2.27 | 0.158 | 0.276 | 0.425
SLC16A6 | SID363995654 | -0.33 | 1.63 | -0.299 | -0.22 | 0.0517
NAPG (NSF attachment protein gamma) | SID363994888 | -0.607 | 2.37 | -0.385 | -0.625 | -0.559
KCNA4 (potassium voltage-gated channel subfamily A member 4) | SID363993433 | -0.572 | 2.26 | -0.553 | -0.633 | -0.437
CCDC85C (coiled-coil domain containing 85C) | SID364002522 | -0.0619 | 2.32 | -0.236 | -0.233 | 0.129
B3GNT3 | SID363998693 | -0.502 | 2.87 | -0.56 | -0.206 | -0.657
GABARAPL2 (GABA type A receptor associated protein like 2) | SID363997974 | -0.518 | 2.77 | -0.556 | -0.621 | -0.462
CEBPA (CCAAT enhancer binding protein alpha) | SID363995350 | 0.109 | 1.73 | 0.343 | 0.432 | -0.415
C5 (complement C5) | SID363992956 | 0.74 | 1.45 | 0.656 | 0.818 | 0.654

A few values from above:
B3GNT3 [SID363998693], KSR1 correlation, replicate 3: -0.657
For “mean correlation with KSR1 profile”, DYNC1H1 (dynein cytoplasmic 1 heavy chain 1) [SID363992648] is entered as -0.967
KCNA4 (potassium voltage-gated channel subfamily A member 4) [SID363993433], KSR1 correlation, replicate 2: -0.633

Additional entries follow:
Target gene | PubChem SID | mean correlation with KSR1 profile | mean distance from KSR1 profile | KSR1 correlation, replicate 1 | KSR1 correlation, replicate 2 | KSR1 correlation, replicate 3
MPP4 (MAGUK p55 scaffold protein 4) | SID364004308 | -0.433 | 2.44 | -0.427 | -0.483 | -0.322
MMP25 (matrix metallopeptidase 25) | SID364002454 | -0.0608 | 1.83 | -0.144 | 0.106 | -0.31
DCTPP1 (dCTP pyrophosphatase 1) | SID364002745 | -0.651 | 1.78 | -0.606 | -0.689 | -0.644
PLCXD1 | SID364001033 | -0.343 | 1.63 | -0.132 | -0.448 | -0.272
CELP (carboxyl ester lipase pseudogene) | SID364005019 | -0.0161 | 2.04 | 0.106 | -0.0196 | -0.318
FAM32A (family with sequence similarity 32 member A) | SID363998594 | -0.446 | 2.14 | -0.393 | -0.597 | -0.379
PMS2 (PMS1 homolog 2, mismatch repair system component) | SID363991858 | 0.147 | 1.58 | -0.00285 | 0.299 | 0.136
LOC51212 (retired record) | SID364000076 | -0.217 | 2.52 | -0.186 | -0.289 | -0.296
LIMK2 (LIM domain kinase 2) | SID363996469 | -0.368 | 2.71 | -0.174 | -0.324 | -0.493
RAB6B (RAB6B, member RAS oncogene family) | SID364000207 | -0.806 | 2.01 | -0.57 | -0.813 | -0.811
CTNS (cystinosin, lysosomal cystine transporter) | SID363995881 | -0.0997 | 1.19 | -0.638 | 0.228 | -0.0271
NR1H3 (nuclear receptor subfamily 1 group H member 3) | SID363996583 | 0.52 | 0.855 | 0.515 | 0.363 | 0.0459
CLIC6 (CLIC family member 6) | SID364004437 | 0.158 | 1.49 | -0.0137 | 0.269 | 0.011
PRKRIP1 (PRKR interacting protein 1) | SID364002948 | 0.412 | 1.76 | 0.484 | 0.651 | -0.1
